Measurements reported in PubChem BioAssay AID743121 (NCATS, 2013)
The whole screen tested about 26,000 reagents; shown is a random part of them. Of all reagents, 167 (0.63%) are marked active. 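Calls are per gene from RSA p-values that are not deposited; an individual active-marked siRNA can sensitise only weakly.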 Unmarked entries are inactive. The numbers tell different reagents against one gene apart. Further read-outs or replicates are left out here. Reagent sequences are not shown.

- Test: 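Partners whose loss is lethal together with topoisomerase I blockade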 (primary screen)
- System: MDA-MB-231 cells, a human breast cancer line
- Reagent: single siRNA against human genes, 20 nM siRNA (0.8 pmol per well)
- Timing: 120 h (drug added 48 h after transfection, read 72 h later)
- Conditions: camptothecin 20 nM (about EC30) for 72 h; vehicle 0.1% DMSO in parallel plates
- Detection: 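CellTiter-Glo ATP signal, scaled to control siRNA as percent viability; sensitisation given as log2 of untreated divided by camptothecin-treated viability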
- Reading the numbers: log2 vehicle/camptothecin viability: higher = stronger sensitisation to camptothecin
- Call rule: 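Each gene scored by redundant siRNA activity (RSA) over its individual siRNA ratios; a gene is called active at p < 0.001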

CLK1 (CDC like kinase 1) #1 — log2 vehicle/camptothecin viability: -0.0498
CLK1 (CDC like kinase 1) #2 — log2 vehicle/camptothecin viability: -0.253
CLK1 (CDC like kinase 1) #3 — log2 vehicle/camptothecin viability: 0.318
CLK1 (CDC like kinase 1) #4 — log2 vehicle/camptothecin viability: -0.18
GMNN (geminin DNA replication inhibitor) #1 — log2 vehicle/camptothecin viability: -0.0709
GMNN (geminin DNA replication inhibitor) #2 — log2 vehicle/camptothecin viability: -0.152
GMNN (geminin DNA replication inhibitor) #3 — log2 vehicle/camptothecin viability: -0.216
GMNN (geminin DNA replication inhibitor) #4 — log2 vehicle/camptothecin viability: -1.05

Laid out differently: 2 of the entries above
{"gene": "GMNN (geminin DNA replication inhibitor)", "siRNA no.": 1, "log2 vehicle/camptothecin viability": -0.0709}
{"gene": "GMNN (geminin DNA replication inhibitor)", "siRNA no.": 2, "log2 vehicle/camptothecin viability": -0.152}

The listing continues:
PPP1R14A (protein phosphatase 1 regulatory inhibitor subunit 14A) #1 — log2 vehicle/camptothecin viability: 0.293
PPP1R14A (protein phosphatase 1 regulatory inhibitor subunit 14A) #2 — log2 vehicle/camptothecin viability: -0.477
PPP1R14A (protein phosphatase 1 regulatory inhibitor subunit 14A) #3 — log2 vehicle/camptothecin viability: 0.635
PPP1R14A (protein phosphatase 1 regulatory inhibitor subunit 14A) #4 — log2 vehicle/camptothecin viability: -0.387
HTR1A (5-hydroxytryptamine receptor 1A) #1 — log2 vehicle/camptothecin viability: -0.0725
HTR1A (5-hydroxytryptamine receptor 1A) #2 — log2 vehicle/camptothecin viability: -0.491
HTR1A (5-hydroxytryptamine receptor 1A) #3 — log2 vehicle/camptothecin viability: -0.266
HTR1A (5-hydroxytryptamine receptor 1A) #4 — log2 vehicle/camptothecin viability: -0.107
